Counter-ions that a name gives are not always drawn. Some of the results follow. Most values lie at the level of the controls, where differences are scatter.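 Reh, a human leukemia cell line, is read out by flow cytometry as the median γH2AX antibody signal in S-phase cells; the score counts standard deviations from the median difference of each paired plate set. Scores above 2.5 were candidate hits; scores below -2 mark compounds lowering MK1775-induced damage.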
tested on: Reh; test: Z' of S-phase gammaH2AX difference (drug + MK1775 minus drug alone) (Z-score); higher = stronger synergistic S-phase DNA damage with MK1775; settings: MK1775 concentration 400 nM; first compound 10 µM; 4 h

SMILES	Z' of S-phase gammaH2AX difference (Z-score)
CSc1nc(N)c2ncn([C@@H]3O[C@H](COP(=O)(O)OP(=O)(O)O)[C@@H](O)[C@H]3O)c2n1 [2-Methylthioadenosine diphosphate trisodium] + C=CCn1c(=O)c2cnc(Nc3ccc(N4CCN(C)CC4)cc3)nc2n1-c1cccc(C(C)(C)O)n1 [MK1775]	inactive: 1.06
CCCCCCCCCCCCCCCCCCNC(=O)OCC(COP(=O)([O-])OCC[n+]1ccsc1)OC (centres undefined) + C=CCn1c(=O)c2cnc(Nc3ccc(N4CCN(C)CC4)cc3)nc2n1-c1cccc(C(C)(C)O)n1 [MK1775]	inactive: 0.0131
N#Cc1ccc(NC(=O)Nc2ccccc2Br)c2n[nH]nc12 + C=CCn1c(=O)c2cnc(Nc3ccc(N4CCN(C)CC4)cc3)nc2n1-c1cccc(C(C)(C)O)n1 [MK1775]	inactive: -0.138
c1ccc(-c2nn3c(c2-c2ccnc4cc(OCCN5CCOCC5)ccc24)CCC3)nc1 + C=CCn1c(=O)c2cnc(Nc3ccc(N4CCN(C)CC4)cc3)nc2n1-c1cccc(C(C)(C)O)n1 [MK1775]	inactive: 0.947
Clc1ccc(C(c2ccccc2Cl)C(Cl)Cl)cc1 (centres undefined) [1-(2-Chlorophenyl)-1-(4-chlorophenyl)-2,2-dichloroethane] + C=CCn1c(=O)c2cnc(Nc3ccc(N4CCN(C)CC4)cc3)nc2n1-c1cccc(C(C)(C)O)n1 [MK1775]	inactive: 0.381
NCCCS(=O)(=O)O [3-Amino-1-propanesulfonic acid sodium] + C=CCn1c(=O)c2cnc(Nc3ccc(N4CCN(C)CC4)cc3)nc2n1-c1cccc(C(C)(C)O)n1 [MK1775]	inactive: -0.501
C=CCN1CCc2cc(O)c(O)cc2C(c2ccccc2)C1 (centres undefined) + C=CCn1c(=O)c2cnc(Nc3ccc(N4CCN(C)CC4)cc3)nc2n1-c1cccc(C(C)(C)O)n1 [MK1775]	inactive: -0.36
Cc1ccc(Nc2nccc(N(C)c3ccc4c(C)n(C)nc4c3)n2)cc1S(N)(=O)=O [Pazopanib] + C=CCn1c(=O)c2cnc(Nc3ccc(N4CCN(C)CC4)cc3)nc2n1-c1cccc(C(C)(C)O)n1 [MK1775]	inactive: -0.285
COc1cc(Nc2ncc3c(n2)-c2ccc(Cl)cc2C(c2c(F)cccc2OC)=NC3)ccc1C(=O)O [MLN8237 (Alisertib)] + C=CCn1c(=O)c2cnc(Nc3ccc(N4CCN(C)CC4)cc3)nc2n1-c1cccc(C(C)(C)O)n1 [MK1775]	inactive: 0.18
O=C(O)c1cc(=O)c2ccccc2[nH]1 [Kynurenic acid] + C=CCn1c(=O)c2cnc(Nc3ccc(N4CCN(C)CC4)cc3)nc2n1-c1cccc(C(C)(C)O)n1 [MK1775]	inactive: -0.697
Cc1cnc(NC(=O)Nc2cc(Br)c(C)cc2OC[C@@H]2CNCCO2)cn1 + C=CCn1c(=O)c2cnc(Nc3ccc(N4CCN(C)CC4)cc3)nc2n1-c1cccc(C(C)(C)O)n1 [MK1775]	active: 2.83
Nc1cc(C(F)(F)F)c(-c2cc(N3CCOCC3)nc(N3CCOCC3)n2)cn1 + C=CCn1c(=O)c2cnc(Nc3ccc(N4CCN(C)CC4)cc3)nc2n1-c1cccc(C(C)(C)O)n1 [MK1775]	inactive: -0.276
Cc1c(C(=O)Nc2ccc(N3C[C@@H](C)O[C@@H](C)C3)nc2)cccc1-c1ccc(OC(F)(F)F)cc1 [LDE225 (NVP-LDE225, Erismodegib)] + C=CCn1c(=O)c2cnc(Nc3ccc(N4CCN(C)CC4)cc3)nc2n1-c1cccc(C(C)(C)O)n1 [MK1775]	inactive: 0.00665
CC(C)NNC(=O)c1ccncc1 [Iproniazid phosphate] + C=CCn1c(=O)c2cnc(Nc3ccc(N4CCN(C)CC4)cc3)nc2n1-c1cccc(C(C)(C)O)n1 [MK1775]	inactive: -0.143
O=C(O)CCCCCCC1C(=O)NC(=O)N1CCC(O)C1CCCCC1 (centres undefined) + C=CCn1c(=O)c2cnc(Nc3ccc(N4CCN(C)CC4)cc3)nc2n1-c1cccc(C(C)(C)O)n1 [MK1775]	inactive: -0.0679
O=c1cc(N2CCOCC2)oc2c(-c3ccccc3)cccc12 [LY-294,002 hydrochloride] + C=CCn1c(=O)c2cnc(Nc3ccc(N4CCN(C)CC4)cc3)nc2n1-c1cccc(C(C)(C)O)n1 [MK1775]	inactive: 0.369
O=c1cc(N2CCOCC2)oc2c(-c3ccccc3)cccc12 + C=CCn1c(=O)c2cnc(Nc3ccc(N4CCN(C)CC4)cc3)nc2n1-c1cccc(C(C)(C)O)n1 [MK1775]	inactive: 0.202
CCN1CCCC1CNC(=O)c1cc(S(N)(=O)=O)ccc1OC (single isomer, unassigned; (-)) [(-)-Sulpiride] + C=CCn1c(=O)c2cnc(Nc3ccc(N4CCN(C)CC4)cc3)nc2n1-c1cccc(C(C)(C)O)n1 [MK1775]	inactive: -0.461
CN1CCN2c3ccccc3Cc3ccccc3C2C1 (centres undefined) [Mianserin hydrochloride] + C=CCn1c(=O)c2cnc(Nc3ccc(N4CCN(C)CC4)cc3)nc2n1-c1cccc(C(C)(C)O)n1 [MK1775]	inactive: -0.398
N[C@@H](Cc1ccc(O)c(O)c1)C(=O)O [L-3,4-Dihydroxyphenylalanine] + C=CCn1c(=O)c2cnc(Nc3ccc(N4CCN(C)CC4)cc3)nc2n1-c1cccc(C(C)(C)O)n1 [MK1775]	inactive: -0.0802
CN(c1ncccc1CNc1nc(Nc2ccc3c(c2)CC(=O)N3)ncc1C(F)(F)F)S(C)(=O)=O + C=CCn1c(=O)c2cnc(Nc3ccc(N4CCN(C)CC4)cc3)nc2n1-c1cccc(C(C)(C)O)n1 [MK1775]	inactive: -1.04
CCN1C(=O)C=CC1=O [N-Ethylmaleimide] + C=CCn1c(=O)c2cnc(Nc3ccc(N4CCN(C)CC4)cc3)nc2n1-c1cccc(C(C)(C)O)n1 [MK1775]	inactive: 0.843
C[N+](C)(C)CCOC(N)=O [Carbachol] + C=CCn1c(=O)c2cnc(Nc3ccc(N4CCN(C)CC4)cc3)nc2n1-c1cccc(C(C)(C)O)n1 [MK1775]	inactive: -0.167
COc1ccc(-c2oc3cc(OC)ccc3c2C(=O)c2ccc(C#N)cc2)cc1 + C=CCn1c(=O)c2cnc(Nc3ccc(N4CCN(C)CC4)cc3)nc2n1-c1cccc(C(C)(C)O)n1 [MK1775]	inactive: 0.143

Another view of part of the listing above:
SMILES | Z' of S-phase gammaH2AX difference (Z-score)
NCCCS(=O)(=O)O [3-Amino-1-propanesulfonic acid sodium] + C=CCn1c(=O)c2cnc(Nc3ccc(N4CCN(C)CC4)cc3)nc2n1-c1cccc(C(C)(C)O)n1 [MK1775] | inactive: -0.501
O=C(O)c1cc(=O)c2ccccc2[nH]1 [Kynurenic acid] + C=CCn1c(=O)c2cnc(Nc3ccc(N4CCN(C)CC4)cc3)nc2n1-c1cccc(C(C)(C)O)n1 [MK1775] | inactive: -0.697

— the supplement of paper PMC5355238
